In US20240368668A1, “SUBSTRATES AND BIOMARKERS OF ADAMTS7” (The Broad Institute, Inc., priority 2021, published 2024):

What was measured:
[1] = tested on: mouse ADAMTS7; test: TMT10 TAILS N-terminomics, SMC1 experiment (Ad-mADAMTS7 WT vs EQ vs Luc, technical replicates, trypsin digest); format: cell-based; settings: for SMC1 TAILS.total Intensity: TAILS HC Overlap, total intensity of the peptide
Procedure, shortened: (§1)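 Full-length mouse ADAMTS7 (WT or E373Q mutant, C-terminal 3xFLAG) or luciferase was transduced via adenovirus, 50 MOI, into HCA-SMC (SMC1, SMC2) or HUVEC. SMC1: pooled media, technical triplicates 400 ug; SMC2: process triplicates 300 ug; HUVEC: process triplicates 200 ug, bFGF2 10 ng/ml.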

[2] = tested on: mouse ADAMTS7; test: TMT10 TAILS N-terminomics, SMC2 experiment (process replicates, trypsin/AspN digest); format: cell-based; settings: for SMC2 TAILS.total Intensity: SMC2 experiment, total intensity of the N-terminal (TAILS) peptide
Procedure, shortened: as §1

[3] = tested on: mouse ADAMTS7; test: TMT10 TAILS N-terminomics, HUVEC experiment (process replicates, trypsin/AspN digest); format: cell-based, human; settings: for ATS7_HUVEC_TAILS_frxns_mATS7inDB_AspGluN.total Intensity: HUVEC TAILS experiment, total MS intensity of the N-terminal (neo-N-terminal) peptide identified by TAILS_id; for HUVEC TAILS.total Intensity: HUVEC experiment, total intensity of the N-terminal (TAILS) peptide
Procedure, shortened: as §1

Substance	SMC1 TAILS.total Intensity [1]	TAILS_SMC_Scaleup_fxns_mATS7i ([1]; TAILS N-terminal peptide identified in SMC conditioned media (scale-up, fractions), mouse ADAMTS7, value listed per TAILS_id (protein_StartAA))	SMC2 TAILS.total Intensity [2]	ATS7_SMC_rd2_TAILS_frxns_matS7inDB_AspGluN_retry.totalIntensity ([2]; SMC rd2 TAILS, AspGluN search, total spectral intensity of the N-terminal peptide (TAILS_id = gene_StartAA cleavage site))	ATS7_HUVEC_TAILS_frxns_mATS7inDB_AspGluN.total Intensity [3]	HUVEC TAILS.total Intensity [3]	TAILS_SMC_Scaleup_fxns_mATS7i ([1]; intensity of the N-terminal (TAILS) peptide in SMC scale-up TAILS experiment, fractions, peptide identified by TAILS_id (gene symbol_StartAA))
NID2_291 (HSSVPLGR; listed as Homo sapiens)	2.94E+09	2.94E+09	6.67E+09	6.67E+09	5.96E+08	5.96E+08	–
SRGN_59 (LLPGESNKIPR; listed as Homo sapiens)	2.70E+09	–	2.86E+09	–	2.32E+08	2.32E+08	2.70E+09
